Consider 36 targets from the supplement of paper PMC11732987, “Enantioselective OTUD7B fragment discovery through chemoproteomics screening and high-throughput optimisation” (Communications Chemistry, 2025).

The chains behind the UniProt entries cited, without tags or fusion partners. Where a name states a change or a piece, a line headed by the entry shows the natural chain unless it says otherwise. Residues count along the entry.
UniProt Q8TBX8: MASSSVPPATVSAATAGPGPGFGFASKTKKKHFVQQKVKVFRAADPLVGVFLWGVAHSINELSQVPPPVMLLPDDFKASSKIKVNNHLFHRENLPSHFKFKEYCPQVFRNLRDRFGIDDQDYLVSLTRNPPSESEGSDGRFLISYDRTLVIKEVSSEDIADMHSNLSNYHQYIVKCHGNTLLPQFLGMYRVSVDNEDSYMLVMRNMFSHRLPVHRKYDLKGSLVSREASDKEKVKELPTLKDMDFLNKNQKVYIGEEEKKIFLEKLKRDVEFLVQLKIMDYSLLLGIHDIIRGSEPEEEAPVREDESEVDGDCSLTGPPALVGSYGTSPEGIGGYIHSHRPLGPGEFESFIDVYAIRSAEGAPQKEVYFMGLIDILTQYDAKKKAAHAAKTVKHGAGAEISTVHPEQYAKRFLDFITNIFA
UniProt P28340: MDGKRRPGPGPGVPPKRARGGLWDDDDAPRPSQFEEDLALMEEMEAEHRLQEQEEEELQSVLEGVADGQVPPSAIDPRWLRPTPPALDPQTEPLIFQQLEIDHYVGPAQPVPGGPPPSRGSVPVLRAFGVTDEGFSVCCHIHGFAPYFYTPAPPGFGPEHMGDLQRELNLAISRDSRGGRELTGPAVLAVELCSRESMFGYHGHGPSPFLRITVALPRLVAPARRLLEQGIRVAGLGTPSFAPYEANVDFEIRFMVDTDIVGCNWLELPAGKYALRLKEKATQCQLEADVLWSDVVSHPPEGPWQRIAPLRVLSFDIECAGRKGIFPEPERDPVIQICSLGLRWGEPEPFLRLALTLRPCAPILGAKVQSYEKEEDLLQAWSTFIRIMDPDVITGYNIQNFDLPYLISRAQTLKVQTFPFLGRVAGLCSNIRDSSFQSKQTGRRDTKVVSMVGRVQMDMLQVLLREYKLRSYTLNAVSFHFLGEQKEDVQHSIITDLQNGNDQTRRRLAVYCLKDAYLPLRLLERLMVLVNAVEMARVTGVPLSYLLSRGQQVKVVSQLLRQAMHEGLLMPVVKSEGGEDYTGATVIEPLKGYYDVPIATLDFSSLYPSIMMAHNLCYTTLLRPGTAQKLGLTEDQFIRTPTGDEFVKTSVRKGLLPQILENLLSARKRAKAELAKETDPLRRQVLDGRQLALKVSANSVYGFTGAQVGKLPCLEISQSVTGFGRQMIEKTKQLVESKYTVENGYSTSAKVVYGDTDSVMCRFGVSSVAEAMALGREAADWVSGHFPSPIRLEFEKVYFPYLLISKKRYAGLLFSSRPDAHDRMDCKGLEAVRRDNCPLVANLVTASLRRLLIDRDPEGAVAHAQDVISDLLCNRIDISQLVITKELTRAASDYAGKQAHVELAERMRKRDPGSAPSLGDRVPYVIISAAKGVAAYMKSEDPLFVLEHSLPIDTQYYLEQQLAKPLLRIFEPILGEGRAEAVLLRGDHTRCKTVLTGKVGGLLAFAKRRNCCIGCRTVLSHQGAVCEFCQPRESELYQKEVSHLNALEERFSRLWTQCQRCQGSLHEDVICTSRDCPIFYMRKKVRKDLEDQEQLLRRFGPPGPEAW
UniProt O00443: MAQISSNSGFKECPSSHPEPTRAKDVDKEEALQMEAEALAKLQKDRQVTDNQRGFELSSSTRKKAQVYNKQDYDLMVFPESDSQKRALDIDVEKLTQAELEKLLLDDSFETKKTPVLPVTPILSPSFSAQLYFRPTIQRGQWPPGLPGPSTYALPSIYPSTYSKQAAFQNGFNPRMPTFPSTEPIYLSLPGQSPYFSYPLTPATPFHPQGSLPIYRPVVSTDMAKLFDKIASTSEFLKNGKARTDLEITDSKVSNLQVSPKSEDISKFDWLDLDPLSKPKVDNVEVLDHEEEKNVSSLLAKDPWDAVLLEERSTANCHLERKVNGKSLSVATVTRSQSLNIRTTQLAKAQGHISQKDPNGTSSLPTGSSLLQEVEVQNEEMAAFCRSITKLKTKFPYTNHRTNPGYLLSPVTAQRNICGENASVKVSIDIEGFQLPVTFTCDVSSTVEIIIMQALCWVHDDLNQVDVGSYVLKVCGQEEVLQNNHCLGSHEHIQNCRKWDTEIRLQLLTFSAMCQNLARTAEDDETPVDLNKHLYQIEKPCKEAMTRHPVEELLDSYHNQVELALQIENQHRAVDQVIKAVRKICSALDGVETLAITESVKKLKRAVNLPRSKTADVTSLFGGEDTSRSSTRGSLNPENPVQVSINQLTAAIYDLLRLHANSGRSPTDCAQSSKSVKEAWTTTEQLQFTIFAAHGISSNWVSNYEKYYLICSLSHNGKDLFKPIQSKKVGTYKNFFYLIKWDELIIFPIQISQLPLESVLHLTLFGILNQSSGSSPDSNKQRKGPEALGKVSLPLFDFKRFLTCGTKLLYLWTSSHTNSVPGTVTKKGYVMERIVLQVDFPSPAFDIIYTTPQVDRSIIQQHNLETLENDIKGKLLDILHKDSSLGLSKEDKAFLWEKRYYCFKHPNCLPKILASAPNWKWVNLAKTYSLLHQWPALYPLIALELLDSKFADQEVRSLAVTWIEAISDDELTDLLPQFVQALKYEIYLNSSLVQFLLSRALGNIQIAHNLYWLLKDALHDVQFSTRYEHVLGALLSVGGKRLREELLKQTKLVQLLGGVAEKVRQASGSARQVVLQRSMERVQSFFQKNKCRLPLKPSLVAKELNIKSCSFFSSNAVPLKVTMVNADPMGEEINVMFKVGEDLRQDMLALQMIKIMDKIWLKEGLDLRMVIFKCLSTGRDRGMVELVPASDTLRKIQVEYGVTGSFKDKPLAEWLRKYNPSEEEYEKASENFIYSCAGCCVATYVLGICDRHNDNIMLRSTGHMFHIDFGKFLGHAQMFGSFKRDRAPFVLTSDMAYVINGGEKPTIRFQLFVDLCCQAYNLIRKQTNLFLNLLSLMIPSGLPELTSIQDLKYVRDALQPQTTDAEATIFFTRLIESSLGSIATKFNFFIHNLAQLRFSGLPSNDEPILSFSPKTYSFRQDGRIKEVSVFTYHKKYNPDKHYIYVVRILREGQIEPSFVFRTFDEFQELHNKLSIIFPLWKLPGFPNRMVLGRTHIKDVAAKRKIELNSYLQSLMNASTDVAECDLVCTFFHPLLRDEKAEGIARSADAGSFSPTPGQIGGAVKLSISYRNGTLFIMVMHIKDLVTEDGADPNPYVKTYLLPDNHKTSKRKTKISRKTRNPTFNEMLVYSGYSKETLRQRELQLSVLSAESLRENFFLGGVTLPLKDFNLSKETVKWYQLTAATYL
UniProt Q9H9Y6, whole entry, looked up: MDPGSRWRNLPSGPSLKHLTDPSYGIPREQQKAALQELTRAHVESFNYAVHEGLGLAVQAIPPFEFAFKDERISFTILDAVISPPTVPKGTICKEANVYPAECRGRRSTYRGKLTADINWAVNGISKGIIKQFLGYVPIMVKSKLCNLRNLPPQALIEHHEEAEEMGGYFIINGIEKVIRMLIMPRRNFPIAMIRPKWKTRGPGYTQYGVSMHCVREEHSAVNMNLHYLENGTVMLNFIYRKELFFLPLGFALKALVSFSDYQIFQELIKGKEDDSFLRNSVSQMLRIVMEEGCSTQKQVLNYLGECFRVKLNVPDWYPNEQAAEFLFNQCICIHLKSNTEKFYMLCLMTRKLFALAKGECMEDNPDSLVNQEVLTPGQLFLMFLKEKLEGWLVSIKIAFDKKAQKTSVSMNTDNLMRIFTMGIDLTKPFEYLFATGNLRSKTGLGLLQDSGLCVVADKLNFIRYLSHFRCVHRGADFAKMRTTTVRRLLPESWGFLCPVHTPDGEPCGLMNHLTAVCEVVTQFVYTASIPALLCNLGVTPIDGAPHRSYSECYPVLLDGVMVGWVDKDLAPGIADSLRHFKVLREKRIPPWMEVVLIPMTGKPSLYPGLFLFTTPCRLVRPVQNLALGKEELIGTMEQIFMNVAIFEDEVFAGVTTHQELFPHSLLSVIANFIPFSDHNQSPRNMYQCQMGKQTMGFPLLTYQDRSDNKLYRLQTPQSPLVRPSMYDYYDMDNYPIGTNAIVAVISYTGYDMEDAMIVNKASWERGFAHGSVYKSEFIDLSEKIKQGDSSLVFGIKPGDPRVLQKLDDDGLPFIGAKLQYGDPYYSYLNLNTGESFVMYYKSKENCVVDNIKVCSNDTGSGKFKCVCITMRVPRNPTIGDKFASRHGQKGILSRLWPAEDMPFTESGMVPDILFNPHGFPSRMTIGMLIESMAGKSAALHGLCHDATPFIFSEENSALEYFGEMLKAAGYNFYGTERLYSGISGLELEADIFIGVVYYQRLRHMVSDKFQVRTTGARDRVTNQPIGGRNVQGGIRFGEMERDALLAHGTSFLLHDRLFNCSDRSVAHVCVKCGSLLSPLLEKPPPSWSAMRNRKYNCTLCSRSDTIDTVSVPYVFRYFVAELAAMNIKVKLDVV
UniProt O00329: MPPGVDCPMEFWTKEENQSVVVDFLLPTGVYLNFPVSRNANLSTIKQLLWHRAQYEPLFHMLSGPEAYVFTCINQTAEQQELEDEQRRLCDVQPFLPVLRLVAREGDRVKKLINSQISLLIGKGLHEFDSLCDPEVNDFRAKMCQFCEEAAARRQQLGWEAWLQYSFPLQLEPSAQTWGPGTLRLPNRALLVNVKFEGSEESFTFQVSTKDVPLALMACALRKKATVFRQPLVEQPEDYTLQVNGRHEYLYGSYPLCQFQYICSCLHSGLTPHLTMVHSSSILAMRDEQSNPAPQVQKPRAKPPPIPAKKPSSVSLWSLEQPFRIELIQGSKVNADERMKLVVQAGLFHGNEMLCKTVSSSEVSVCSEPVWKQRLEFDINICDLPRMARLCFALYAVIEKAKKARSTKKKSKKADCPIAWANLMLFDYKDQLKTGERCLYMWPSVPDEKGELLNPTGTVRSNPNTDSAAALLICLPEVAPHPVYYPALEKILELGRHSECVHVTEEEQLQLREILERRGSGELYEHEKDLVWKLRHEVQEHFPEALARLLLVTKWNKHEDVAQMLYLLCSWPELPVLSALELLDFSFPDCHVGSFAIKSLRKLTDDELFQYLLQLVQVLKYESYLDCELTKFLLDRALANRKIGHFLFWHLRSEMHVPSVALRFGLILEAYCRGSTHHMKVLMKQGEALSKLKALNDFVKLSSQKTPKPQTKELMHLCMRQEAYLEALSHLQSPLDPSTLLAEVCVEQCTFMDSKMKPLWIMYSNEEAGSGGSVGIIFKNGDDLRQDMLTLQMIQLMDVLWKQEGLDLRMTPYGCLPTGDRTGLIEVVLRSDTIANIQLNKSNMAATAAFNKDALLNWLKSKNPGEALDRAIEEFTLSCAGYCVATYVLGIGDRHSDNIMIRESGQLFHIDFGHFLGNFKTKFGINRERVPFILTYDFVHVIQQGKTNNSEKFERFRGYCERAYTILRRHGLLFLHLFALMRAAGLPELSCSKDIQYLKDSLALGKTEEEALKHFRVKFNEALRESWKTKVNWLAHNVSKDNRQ
UniProt O75925, 421-453: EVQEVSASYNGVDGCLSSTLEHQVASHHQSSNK
UniProt P37287: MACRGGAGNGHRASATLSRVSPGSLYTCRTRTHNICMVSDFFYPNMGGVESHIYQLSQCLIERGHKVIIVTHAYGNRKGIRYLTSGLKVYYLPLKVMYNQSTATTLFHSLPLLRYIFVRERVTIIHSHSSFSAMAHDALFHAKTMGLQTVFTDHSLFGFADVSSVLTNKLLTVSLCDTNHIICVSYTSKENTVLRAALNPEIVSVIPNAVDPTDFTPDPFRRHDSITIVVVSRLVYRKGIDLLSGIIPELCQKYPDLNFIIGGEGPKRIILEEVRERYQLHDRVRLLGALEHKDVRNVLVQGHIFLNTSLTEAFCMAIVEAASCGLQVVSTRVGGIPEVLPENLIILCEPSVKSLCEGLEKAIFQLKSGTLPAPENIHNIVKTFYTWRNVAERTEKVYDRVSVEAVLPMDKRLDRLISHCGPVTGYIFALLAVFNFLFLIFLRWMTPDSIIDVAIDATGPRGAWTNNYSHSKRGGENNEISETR
UniProt Q9NVS9: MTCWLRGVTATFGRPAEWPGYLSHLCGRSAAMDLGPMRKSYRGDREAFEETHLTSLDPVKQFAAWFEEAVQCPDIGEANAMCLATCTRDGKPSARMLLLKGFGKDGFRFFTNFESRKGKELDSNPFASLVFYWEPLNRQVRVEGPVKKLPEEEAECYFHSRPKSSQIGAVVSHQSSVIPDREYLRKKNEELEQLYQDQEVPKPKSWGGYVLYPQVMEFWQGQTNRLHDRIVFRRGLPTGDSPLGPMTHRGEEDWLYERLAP
UniProt P53350, 365-392: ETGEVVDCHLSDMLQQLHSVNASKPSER
UniProt P78337, whole entry, looked up: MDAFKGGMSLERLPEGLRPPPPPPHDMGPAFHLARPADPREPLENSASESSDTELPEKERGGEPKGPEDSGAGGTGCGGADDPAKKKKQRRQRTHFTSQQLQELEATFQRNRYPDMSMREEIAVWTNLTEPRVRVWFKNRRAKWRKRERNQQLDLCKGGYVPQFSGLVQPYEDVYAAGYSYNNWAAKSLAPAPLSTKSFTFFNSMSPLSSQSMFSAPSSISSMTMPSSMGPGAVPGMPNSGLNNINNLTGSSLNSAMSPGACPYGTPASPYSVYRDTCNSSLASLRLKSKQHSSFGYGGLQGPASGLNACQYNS
UniProt P42356, 8-28: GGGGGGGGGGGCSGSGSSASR

The other results are listed elsewhere or left out. The data scatter; read single values as rough.

Compound in this experiment: ClCC(=O)N[C@H]1CCCc2ccccc12
Put plainly: log2 mean competition ratio of IA-DTB cysteine labelling (DMSO/compound) (log2 ratio); higher = stronger cysteine engagement by compound. Conditions: 200 µM; treatment time: 4 h; cell line lysate: HEK293T. As to the method: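 IA-DTB competitive cysteine chemoproteomics in HEK293T RIPA lysate. Lysates were treated with compound 29 or 30 at 50 or 200 µM for 4 h, then IA-DTB (500 µM, 1 h), trypsin-digested, NeutrAvidin-enriched and analysed by diaPASEF. Competition ratio = intensity DMSO / intensity compound (n=4 treated, n=64 DMSO); binding: mean log2 CR ≥ 1 and p ≤ 0.05 plus QC filters. Target is the cysteine site.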
For PLEC C4454 (UniProt Q15149), the “log2 mean competition ratio” value is -0.597. In the case of POLA1 C514 (UniProt P09884), the “log2 mean competition ratio” value worked out at 0.351. POLR1E C138 (UniProt Q9GZS1): the “log2 mean competition ratio” value turned out to be 0.0468. Turning to PIP4K2C C104 (UniProt Q8TBX8), the “log2 mean competition ratio” value was -0.116. On to PIEZO1 C95 (UniProt Q92508), for which the “log2 mean competition ratio” value worked out at 0.126. Regarding POLR1A C822 (UniProt O95602), the “log2 mean competition ratio” value was -0.215.

Turning to PIAS3 C327, the “log2 mean competition ratio” value is -0.0166. Take PKP2 C416 (UniProt Q99959): the “log2 mean competition ratio” value was -0.23. On to POLD1 C1058 (UniProt P28340), for which the “log2 mean competition ratio” value is 0.0961. Next, PIK3C2A C908 (UniProt O00443): -0.203; PIK3C2A C13 (UniProt O00443): -0.18. Next, PLEKHM2 C340 (UniProt Q8IWE5): 0.0291; PLEKHA3 C94 (UniProt Q9HB20): 0.315; POLR1B C847 (UniProt Q9H9Y6): -0.041. In the case of PIK3CD C90 (UniProt O00329), the “log2 mean competition ratio” value is -0.162. In the case of PNPLA6 C418 (UniProt Q8IY17), the “log2 mean competition ratio” value was 0.16. Next, PHRF1 C1123 (UniProt Q9P1Y6): -0.0129; PIAS1 C435 (UniProt O75925): -0.25; POLD1 C512 (UniProt P28340): 0.194. The result for PHF3 C1709 (UniProt Q92576) reads 0.359. PLEKHH3 C682: the “log2 mean competition ratio” value was 0.097.

PIGA C28 (UniProt P37287): the “log2 mean competition ratio” value came out at 0.184. In the case of PNPO C156 (UniProt Q9NVS9), the “log2 mean competition ratio” value is -0.0125. For the target POC1A C5 (UniProt Q8NBT0), the “log2 mean competition ratio” value came to 0.00216. Next, PITRM1 C780 (UniProt Q5JRX3): 0.144. For POLG C1130, the “log2 mean competition ratio” value was found to be 0.155. PIKFYVE C1970 (UniProt Q9Y2I7): the “log2 mean competition ratio” value is 0.276. As to PLK1 C372 (UniProt P53350), the “log2 mean competition ratio” value stood at 0.0573. The result for POLD1 C428 (UniProt P28340) reads 0.115.

Regarding PMPCB C419 (UniProt O75439), the “log2 mean competition ratio” value turned out to be 0.878. The result for PHKA1 C937 (UniProt P46020) reads -0.136; that for PI4KB C435 (UniProt Q9UBF8), -0.111. As for PIK3C2A C541 (UniProt O00443), the “log2 mean competition ratio” value was -0.152. Next, PLEKHA3 C216 (UniProt Q9HB20): 0.204; PITX1 C156 (UniProt P78337): 0.154; PI4KA C19 (UniProt P42356): 0.287.
